In the supplement of paper PMC7877785:
± gives the uncertainty stated by the source. The uncertainty is large for many entries.

Experiment: self-splicing fitness, log relative to wild type (ln ratio); higher = more splicing; Tetrahymena group I intron in knt gene, E. coli kanamycin selection, DiMSum; sequences stand for … in CUCUCU…GGAGGGAAAAGUUAUCAGGCAUGCACCUGGUAGCUAGUCUUUAAACCAAUAGAUUGCAUCGGUUUAAAAGGCAAGACCGUCAAAUUGCGGGAAAGGGGUCAACAGCCGUUCAGUACCAAGUCUCAGGGGAAACUUUGAGAUGGCCUUGCAAAGGGUAUGGUAAUAAGCUGACGGACAUGGUCCUAACCACGCAGCCAAGUCCUAAGUCAACAGAUCUUCUGUUGAUAUGGAUGCAGUUCACAGACUAAAUGUCGGUCGGGGAAGAUGUAUUCUUCUCAUAAGAUAUAGUCGGACCUCUCCUUAAUGGGAGCUAGCGGAUGAAGUGAUGCAACACUGGAGCCGCUGGGAACUAAUUUGUAUGCGAAAGUAUAUUGAUUAGUUUUGGAGUACUCGUGGUCG
Method in brief: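 Pooled colonies went to amplicon sequencing on an Illumina HiSeq 2500 after six replicate transformations. The plates were LB agar with 100 μg/mL carbenicillin, 50 μM IPTG and 0.2% rhamnose, with or without 25 μg/mL kanamycin, incubated overnight at 37°C or 30°C. The E. coli BL21(DE3) library had all eight P1ex-region intron nucleotides randomised, the intron placed in the knt kanamycin-resistance gene on pET-22b(+). DiMSum fitness is the error-weighted combination of replicate fold changes, kanamycin against none, normalised to wild type.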

Row | Sequence | self-splicing fitness (ln) (30 °C) | self-splicing fitness (ln) (37 °C)
1 | GUCCAGCAAUAUUACGGACC | -5.06 ± 0.71 | 
2 | AGCGAGCAAUAUUACGGGGC | -4.34 ± 0.52 | -2.59 ± 0.76
3 | ACUGAGCAAUAUUACGCAAC |  | -3.64 ± 1
4 | UUGGAGCAAUAUUACGGCAC | -3.52 ± 1.1 | 
5 | UUGGAGCAAUAUUACGGGUU | -4.04 ± 0.6 | -2.64 ± 1.1
6 | GAUGAGCAAUAUUACGAGGC | -1.61 ± 0.76 | -1.04 ± 0.71
7 | UCAAAGCAAUAUUACGUUGC | -3.48 ± 0.19 | -3.23 ± 0.26
8 | GACCAGCAAUAUUACGCCAU | -3.59 ± 0.17 | -2.09 ± 0.13
9 | AUGAAGCAAUAUUACGGAUU | -1.08 ± 0.078 | -0.689 ± 0.1
10 | GCGUAGCAAUAUUACGCAUA | -3.49 ± 0.2 | -2.17 ± 0.21
11 | UGCCAGCAAUAUUACGUACU | 0.158 ± 0.14 | -1.19 ± 0.19
12 | CUUAAGCAAUAUUACGGGCG | -0.789 ± 0.13 | -0.48 ± 0.14
13 | UACGAGCAAUAUUACGGGAC | -4.39 ± 1 | -2.03 ± 0.51
14 | GCACAGCAAUAUUACGGACA | -1.02 ± 0.1 | -0.584 ± 0.11
15 | GCCAAGCAAUAUUACGGGCG | -1.36 ± 0.09 | -0.322 ± 0.11
16 | CUGCAGCAAUAUUACGAUGC | -3.13 ± 0.24 | -1.92 ± 0.43
17 | GGGAAGCAAUAUUACGUUGU | -3.23 ± 0.22 | -2.31 ± 0.29
18 | UCCGAGCAAUAUUACGCCCU |  | -2.72 ± 0.54
19 | GGCGAGCAAUAUUACGCCAU | -4.49 ± 1 | -3.45 ± 0.6
20 | GCUUAGCAAUAUUACGCAAG | -4.01 ± 0.6 | 
21 | AAAUAGCAAUAUUACGGGUC | -3.56 ± 0.17 | -3.1 ± 0.24
22 | UAAAAGCAAUAUUACGCUUC | -5.68 ± 0.5 | 
23 | GGUCAGCAAUAUUACGCCGA | -2.73 ± 0.55 | 
24 | GCUAAGCAAUAUUACGGGCU | -3.64 ± 0.61 | 
25 | UCAAAGCAAUAUUACGAAUC | -4.56 ± 0.72 | 
26 | AGUAAGCAAUAUUACGCCUC | -2.65 ± 1.1 | 
27 | UUUGAGCAAUAUUACGAACG | -2.81 ± 0.76 | 

Row | Sequence | self-splicing fitness (ln) (30 °C) | self-splicing fitness (ln) (37 °C)
28 | GUAUAGCAAUAUUACGUUAC |  | -2.28 ± 0.65
29 | AUCGAGCAAUAUUACGCAGC | -3.54 ± 1 | -0.517 ± 1
30 | GGCGAGCAAUAUUACGUUGC | -3.52 ± 0.61 | -1.88 ± 0.67
31 | CUGGAGCAAUAUUACGUCUU |  | -3.7 ± 0.59
32 | AUUAAGCAAUAUUACGGGGU | -4.11 ± 0.24 | -2.83 ± 0.2
33 | CUUUAGCAAUAUUACGGCAC | -2.64 ± 0.56 | 
34 | CUAUAGCAAUAUUACGAGGC |  | -3.59 ± 0.73
35 | GGAGAGCAAUAUUACGACCG | -2.6 ± 0.59 | -1.98 ± 1.1
36 | CCUAAGCAAUAUUACGCCCU |  | -1.69 ± 1.2
37 | CCUAAGCAAUAUUACGAUCC |  | -2.37 ± 0.54
38 | AAAGAGCAAUAUUACGCAGC | -4.73 ± 1 | 
39 | CAUGAGCAAUAUUACGGCUC | -4.23 ± 0.6 | -2.03 ± 1.1
40 | AAAGAGCAAUAUUACGGUAA | -1.74 ± 0.3 | -1.67 ± 0.26
41 | CUUUAGCAAUAUUACGACAA | -2.47 ± 0.67 | -2.54 ± 1.1
42 | GGCUAGCAAUAUUACGAGGC |  | -0.105 ± 0.56
43 | AUUCAGCAAUAUUACGCCGC | -3.28 ± 0.53 | -2.45 ± 0.75
44 | UAGCAGCAAUAUUACGACGG | -0.73 ± 0.09 | -0.313 ± 0.12
45 | GCCCAGCAAUAUUACGUAUU | -2.02 ± 0.066 | -0.786 ± 0.074
46 | GGUAAGCAAUAUUACGCUGC | -2.94 ± 0.2 | -3.31 ± 0.52
47 | CGGUAGCAAUAUUACGCGUG | -2.11 ± 0.15 | -1.82 ± 0.14
48 | GAUGAGCAAUAUUACGCUUC |  | -1.86 ± 0.6
49 | GGCUAGCAAUAUUACGAUAA | -1.28 ± 0.17 | -1.75 ± 0.16
50 | AGCAAGCAAUAUUACGGAUC | -2.73 ± 0.17 | -1.08 ± 0.16
51 | GUAUAGCAAUAUUACGCUCA | -1.9 ± 0.66 | 
52 | UUGUAGCAAUAUUACGGCGC | -4.14 ± 0.51 | 
53 | GAUCAGCAAUAUUACGCAUU | -2.36 ± 0.26 | -1.05 ± 0.32
54 | AAAUAGCAAUAUUACGCUAG | -1.55 ± 0.13 | -1 ± 0.15

Quoted from the listing.
self-splicing fitness (ln) (37 °C), CUGGAGCAAUAUUACGUCUU is entered as -3.7 ± 0.59
self-splicing fitness (ln) (37 °C), AUUCAGCAAUAUUACGCCGC is entered as -2.45 ± 0.75
self-splicing fitness (ln) (37 °C), GAUGAGCAAUAUUACGCUUC is entered as -1.86 ± 0.6
